From paper PMC9107676
Results are given in words; binding and its absence hold for the method and conditions named. Binding seen in cells or lysates may run through a third protein. Binding calls can cover weak binding; strength is not graded here. Where a sequence is shown, tags or fusion partners need not be part of it.

Assays:
Experiment in all cases: co-IP; HEK293T cells transfected with Flag-HnRNP F (WT or deletion mutants) with or without pCAGGS-HA-N; lysed in RIPA buffer; immunoprecipitation with the indicated antibody (anti-Flag) overnight at 4 °C, protein A + G beads, five washes with RIPA; western blotting
[1] = target: T1, Flag-tagged full-length porcine HnRNP F (heterogeneous nuclear ribonucleoprotein F) (porcine) (UniProt F1RG16)
T1 sequence: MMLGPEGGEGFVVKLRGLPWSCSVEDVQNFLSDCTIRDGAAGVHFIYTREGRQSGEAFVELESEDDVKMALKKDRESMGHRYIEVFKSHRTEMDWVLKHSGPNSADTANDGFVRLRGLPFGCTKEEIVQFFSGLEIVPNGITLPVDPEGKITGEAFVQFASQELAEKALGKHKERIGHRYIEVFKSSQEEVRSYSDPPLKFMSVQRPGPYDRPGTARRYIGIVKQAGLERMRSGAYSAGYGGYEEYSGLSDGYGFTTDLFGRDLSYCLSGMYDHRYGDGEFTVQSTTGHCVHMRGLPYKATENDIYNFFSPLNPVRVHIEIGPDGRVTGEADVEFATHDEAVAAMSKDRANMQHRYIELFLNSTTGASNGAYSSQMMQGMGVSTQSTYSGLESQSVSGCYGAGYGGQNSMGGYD

[2] = target: T2, Flag-tagged porcine HnRNP F deletion mutant lacking the qRRM2 domain (residues 111-188) (porcine) (UniProt F1RG16)
T2 sequence: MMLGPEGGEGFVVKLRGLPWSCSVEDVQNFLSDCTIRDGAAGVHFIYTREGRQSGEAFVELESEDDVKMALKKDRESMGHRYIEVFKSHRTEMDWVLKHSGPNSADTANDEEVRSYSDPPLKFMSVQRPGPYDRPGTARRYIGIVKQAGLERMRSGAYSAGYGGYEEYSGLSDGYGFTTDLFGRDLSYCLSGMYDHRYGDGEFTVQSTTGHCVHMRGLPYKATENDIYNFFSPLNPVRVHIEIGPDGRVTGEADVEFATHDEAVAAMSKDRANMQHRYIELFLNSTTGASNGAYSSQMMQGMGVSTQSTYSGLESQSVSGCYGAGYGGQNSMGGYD

[3] = target: T3, Flag-tagged porcine HnRNP F deletion mutant lacking the qRRM3 domain (residues 289-414) (porcine) (UniProt F1RG16)
T3 sequence: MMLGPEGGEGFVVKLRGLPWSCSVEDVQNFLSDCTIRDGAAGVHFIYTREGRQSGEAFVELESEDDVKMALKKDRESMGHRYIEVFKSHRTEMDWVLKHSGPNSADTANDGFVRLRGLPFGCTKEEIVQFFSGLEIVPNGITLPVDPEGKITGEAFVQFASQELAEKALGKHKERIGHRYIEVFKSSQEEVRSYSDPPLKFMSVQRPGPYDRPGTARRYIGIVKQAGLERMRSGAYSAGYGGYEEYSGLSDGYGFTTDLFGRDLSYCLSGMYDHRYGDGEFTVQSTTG

Measured: binding

HA-tagged PRRSV nucleocapsid (N) protein
binds: [1] | [2] | [3]
